# Results: PubChem BioAssay AID540275 (National Center for Advancing Translational Sciences (NCATS), 2011)
# The chains behind the UniProt entries cited, without tags or fusion partners.
# UniProt Q8NER1, whole entry, looked up: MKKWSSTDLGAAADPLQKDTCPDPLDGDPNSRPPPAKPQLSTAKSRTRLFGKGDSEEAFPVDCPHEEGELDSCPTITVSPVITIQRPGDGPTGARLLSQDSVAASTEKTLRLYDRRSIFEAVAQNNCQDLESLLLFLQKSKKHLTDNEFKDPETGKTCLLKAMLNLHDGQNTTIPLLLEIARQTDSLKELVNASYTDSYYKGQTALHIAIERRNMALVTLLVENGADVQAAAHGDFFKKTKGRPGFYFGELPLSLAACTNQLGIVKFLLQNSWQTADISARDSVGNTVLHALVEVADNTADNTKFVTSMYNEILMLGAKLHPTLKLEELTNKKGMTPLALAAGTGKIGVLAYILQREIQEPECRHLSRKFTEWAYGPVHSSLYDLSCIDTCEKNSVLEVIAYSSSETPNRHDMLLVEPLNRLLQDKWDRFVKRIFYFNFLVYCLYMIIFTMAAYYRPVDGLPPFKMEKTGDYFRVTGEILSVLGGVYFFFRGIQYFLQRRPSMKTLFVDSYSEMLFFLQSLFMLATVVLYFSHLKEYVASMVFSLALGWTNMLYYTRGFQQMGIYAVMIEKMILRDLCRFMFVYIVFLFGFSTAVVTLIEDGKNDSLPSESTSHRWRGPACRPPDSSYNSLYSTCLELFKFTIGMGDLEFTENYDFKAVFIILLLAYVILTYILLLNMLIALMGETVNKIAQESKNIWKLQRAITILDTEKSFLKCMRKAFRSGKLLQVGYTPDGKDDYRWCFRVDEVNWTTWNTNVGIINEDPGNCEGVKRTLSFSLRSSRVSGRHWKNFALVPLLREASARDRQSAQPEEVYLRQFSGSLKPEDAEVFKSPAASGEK
# Out of some 320,000 compounds screened, about 620 (0.19%) were called active. This list was built around the results that the source calls inconclusive (neither active nor inactive); the mix of calls is not that of the screen. Cut-off read from the data, not from the text of the source: active = activation above about 80%; inconclusive = between about 30% and that limit; inactive = weaker than that.
# Biological target: Transient receptor potential cation channel subfamily V member 1 (Homo sapiens) (UniProt Q8NER1)
# Assay: HTS Assay for Compounds that Act as Agonists of the Vanilloid Receptor 1; note: 0% is about no effect
# Conditions: TRPV1-expressing cells, Fluo-8 calcium influx, agonist mode; at 8.33 µM, active compounds read high
# Procedure, shortened: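 Cells expressing TRPV1 were dye-loaded with Fluo-8 and read kinetically: 10 s baseline, 3 min after compound (agonist portion), then 2 min after EC20 capsaicin (allosteric enhancer portion). Calcium-bound dye fluorescence at 480/520 nm.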
row,Structure (SMILES),activation
1,CN(C)c1nc(N(C)C)nc(N(C#N)CCOc2ccccc2)n1,inconclusive: 38.6%
2,Cc1cc(OCC(=O)N2CCc3ccccc3C2)c(C)cc1Br,inconclusive: 40.2%
3,O=C(Nc1ccc(C(F)(F)F)cc1)N1CCN(c2ccnc3cc(Cl)ccc23)CC1,inactive: -4.4%
4,Cc1cc(C(=O)N2CCN(c3cccc(Cl)c3)CC2)c(C)o1,inconclusive: 41.3%
5,CCOc1ccc(NC(=O)CSC2=NCCN2)cc1,inactive: -0.4%
6,Oc1ccc(/C=N/Nc2nc(N3CCCC3)nc(N3CCCC3)n2)cc1O,inconclusive: 76.4%
7,O=C(Nc1ccc(Cl)cc1)N1CCC(c2ccccc2)C1 (stereo not given),inconclusive: 48.9%
8,Cc1ccc(-c2noc(CSc3nnc(Cc4cccs4)n3-c3ccccc3)n2)cc1,inactive: 2.41%
9,CCOc1ccc2[nH]c(=O)c(CN(Cc3cccs3)C(CC)c3nnnn3C(C)(C)CC)cc2c1 (stereo not given),inconclusive: 39.9%
10,O=C(CC(c1ccccc1)c1ccccc1)Nc1ccc2c(c1)OCCO2,inconclusive: 38.9%
11,Cc1cc(C)n(-c2nc(NCCCN(C)C)c3c4c(sc3n2)COC(C)(C)C4)n1,inactive: -7.2%
12,O=c1c2ccccc2nc(COc2ccccc2)n1/N=C/c1ccco1,inconclusive: 48.8%
13,CCn1c(C)cc(/C=C2/NC(=O)N(Cc3ccccc3F)C2=O)c1C,inconclusive: 34%
14,CC(=O)c1sc(-c2ccc(F)cc2)cc1NS(=O)(=O)c1ccccc1,inactive: 3.68%
15,COc1cc2c(cc1OC)CN(C(=O)C1CCCN(C(=O)c3ccc(Cl)cc3)C1)CC2 (stereo not given),inconclusive: 61.3%
16,O=C(CSc1nc(-c2ccc(F)cc2)cc(C(F)(F)F)n1)NCc1ccco1,inconclusive: 30.3%
17,O=C(c1ccc2nsnc2c1)N1CCN(c2ccc([N+](=O)[O-])cc2)CC1,inactive: 0.0562%
18,CCOC(=O)CSc1nnc(-c2ccoc2C)n1-c1ccc(OCC)cc1,inconclusive: 41.4%
19,CCOc1c2ccc(C(=O)N[C@H](C)C3CCCCC3)cc2nn1CC,inconclusive: 36%
20,Cc1nnc2n(Cc3ccccc3)c(=O)c3c4c(sc3n12)COC(C(C)C)C4 (stereo not given),inconclusive: 37.6%
21,Cc1cc(C)nc(N2CCCC(CCC(=O)NCc3ccc(F)c(F)c3)C2)n1 (stereo not given),inconclusive: 42.7%
22,CN(C)c1nc(SCCOC(=O)Nc2ccccc2)nc(N(C)C)n1,inconclusive: 55%
23,O=C(COC(=O)c1ccccc1-n1cnnn1)c1ccc(Br)cc1,inactive: 2.58%
24,Cc1nc(-c2ccc(NC(=O)c3ccccc3)cc2)cs1,inactive: 13.4%
25,CC(C)(C)C1CCC2(CC1)C(C#N)=C(SCC(=O)Nc1ccccc1)NC(=O)C2C#N (stereo not given),inconclusive: 31.1%

# 3 structures already listed, ordered by heavy-atom count, ascending:
row,Structure (SMILES),activation
7,O=C(Nc1ccc(Cl)cc1)N1CCC(c2ccccc2)C1 (stereo not given),inconclusive: 48.9%
6,Oc1ccc(/C=N/Nc2nc(N3CCCC3)nc(N3CCCC3)n2)cc1O,inconclusive: 76.4%
11,Cc1cc(C)n(-c2nc(NCCCN(C)C)c3c4c(sc3n2)COC(C)(C)C4)n1,inactive: -7.2%
